Reference: PMC11535509

Chains of the proteins cited; added tags and fusions are not shown. Residues count along the entry.
UniProt Q8NE86, residues 51-351: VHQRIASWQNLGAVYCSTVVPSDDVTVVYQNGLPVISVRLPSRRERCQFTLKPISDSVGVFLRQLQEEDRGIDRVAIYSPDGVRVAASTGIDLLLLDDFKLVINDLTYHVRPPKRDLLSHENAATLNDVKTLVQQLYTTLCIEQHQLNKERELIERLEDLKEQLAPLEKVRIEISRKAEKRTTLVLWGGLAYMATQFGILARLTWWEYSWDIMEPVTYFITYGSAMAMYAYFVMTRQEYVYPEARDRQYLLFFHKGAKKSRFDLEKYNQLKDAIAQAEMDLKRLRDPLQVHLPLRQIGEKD
UniProt Q9BPX6, residues 34-476: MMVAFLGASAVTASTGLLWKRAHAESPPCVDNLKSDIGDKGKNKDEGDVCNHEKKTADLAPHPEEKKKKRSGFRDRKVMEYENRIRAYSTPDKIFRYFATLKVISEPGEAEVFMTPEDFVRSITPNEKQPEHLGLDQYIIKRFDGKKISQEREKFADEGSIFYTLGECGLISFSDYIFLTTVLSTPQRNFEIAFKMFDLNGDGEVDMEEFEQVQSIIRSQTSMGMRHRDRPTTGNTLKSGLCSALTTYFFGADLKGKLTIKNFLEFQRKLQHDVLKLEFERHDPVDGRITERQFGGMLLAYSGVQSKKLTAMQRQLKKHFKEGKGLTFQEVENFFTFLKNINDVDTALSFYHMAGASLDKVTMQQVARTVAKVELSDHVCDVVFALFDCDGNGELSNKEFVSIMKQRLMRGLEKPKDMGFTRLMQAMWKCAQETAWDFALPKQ
UniProt P56378: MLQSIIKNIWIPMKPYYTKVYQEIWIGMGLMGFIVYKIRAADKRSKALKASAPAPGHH

Experiments:
Test in all cases: affinity purification with mass spectrometry; tandem affinity purification (streptavidin resin, biotin elution, then Ni-NTA) of the StrepII-HA-His6-tagged bait (MCU, MCUB or EMRE) from 3% digitonin lysates of tetracycline-induced Flp-In T-REx HEK293 cells, resting conditions; label-free LC-MS/MS; parental line as control; preys filtered for mitochondrial proteins
[1] = molecular target: T1, MCUB fused at the C-terminus to a StrepII-HA-His6 tag (MCUB bait) (UniProt Q9NWR8)
T1 sequence: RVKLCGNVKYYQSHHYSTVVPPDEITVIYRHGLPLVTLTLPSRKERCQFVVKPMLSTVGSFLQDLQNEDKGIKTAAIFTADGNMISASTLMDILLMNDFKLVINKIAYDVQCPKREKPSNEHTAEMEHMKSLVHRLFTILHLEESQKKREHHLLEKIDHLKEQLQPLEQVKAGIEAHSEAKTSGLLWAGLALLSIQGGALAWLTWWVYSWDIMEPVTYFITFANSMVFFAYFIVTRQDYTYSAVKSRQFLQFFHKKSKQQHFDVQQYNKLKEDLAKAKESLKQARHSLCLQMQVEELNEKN

[2] = molecular target: MCU fused at the C-terminus to a StrepII-HA-His6 tag (MCU bait) (UniProt Q8NE86)
[3] = molecular target: T2, EMRE fused at the C-terminus to a StrepII-HA-His6 tag (EMRE bait) (UniProt Q9H4I9)
T2 sequence: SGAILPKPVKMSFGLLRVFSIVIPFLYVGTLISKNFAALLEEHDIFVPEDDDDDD

[4] = molecular target: T1, MCUB fused at the C-terminus to a StrepII-HA-His6 tag (MCUB bait); remark: listed apart in the source
[5] = molecular target: MCU fused at the C-terminus to a StrepII-HA-His6 tag (MCU bait) (UniProt Q8NE86); remark: listed apart in the source
[6] = molecular target: T3, MCUB fused at the C-terminus to a StrepII-HA-His6 tag (MCUB bait), Q9NWR8; settings: remark: other sources report otherwise
T3 chain: T1 sequence

binding [1]: binds
Molecule: MCU (Mitochondrial Calcium Uniporter), endogenous (from UniProt Q8NE86 51-351)

binding [1]: binds
Molecule: MICU1 (Mitochondrial Calcium Uptake 1), endogenous (from UniProt Q9BPX6 34-476)

binding [2]: binds
Molecule: J subunit of the ATP synthase complex (ATP5MPL) (from UniProt P56378 1-58)

binding [3]: binds | binding [4]: binds
B1: EF-hand domain-containing protein D1 (EFHD1), endogenous (protein, UniProt Q9BUP0 1-239)
chain: MASEELACKLERRLRREEAEESGPQLAPLGAPAPEPKPEPEPPARAPTASADAELSAQLSRRLDINEGAARPRRCRVFNPYTEFPEFSRRLIKDLESMFKLYDAGRDGFIDLMELKLMMEKLGAPQTHLGLKSMIKEVDEDFDGKLSFREFLLIFHKAAAGELQEDSGLMALAKLSEIDVALEGVKGAKNFFEAKVQALSSASKFEAELKAEQDERKREEEERRLRQAAFQKLKANFNT

binding [3]: binds | binding [5]: binds
B2: SLC25A25 (protein, UniProt Q6KCM7 1-469)
chain: MLCLCLYVPVIGEAQTEFQYFESKGLPAELKSIFKLSVFIPSQEFSTYRQWKQKIVQAGDKDLDGQLDFEEFVHYLQDHEKKLRLVFKSLDKKNDGRIDAQEIMQSLRDLGVKISEQQAEKILKSMDKNGTMTIDWNEWRDYHLLHPVENIPEIILYWKHSTIFDVGENLTVPDEFTVEERQTGMWWRHLVAGGGAGAVSRTCTAPLDRLKVLMQVHASRSNNMGIVGGFTQMIREGGARSLWRGNGINVLKIAPESAIKFMAYEQIKRLVGSDQETLRIHERLVAGSLAGAIAQSSIYPMEVLKTRMALRKTGQYSGMLDCARRILAREGVAAFYKGYVPNMLGIIPYAGIDLAVYETLKNAWLQHYAVNSADPGVFVLLACGTMSSTCGQLASYPLALVRTRMQAQASIEGAPEVTMSSLFKHILRTEGAFGLYRGLAPNFMKVIPAVSISYVVYENLKITLGVQSR

binding [5]: binds
B3: TMEM70 (protein, UniProt Q9BUB7 82-260)
chain: LNTPSDKSEDGRLIYTGNMARAVFGVKCFSYSTSLIGLTFLPYIFTQNNAISESVPLPIQIIFYGIMGSFTVITPVLLHFITKGYVIRLYHEATTDTYKAITYNAMLAETSTVFHQNDVKIPDAKHVFTTFYAKTKSLLVNPVLFPNREDYIHLMGYDKEEFILYMEETSEEKRHKDDK

binding [6]: binds
B4: MICU2, endogenous, Q8IYU8 23-434 (protein)
chain: AVSRQAVRSPGPLAAAVAGAALAGAGAAWHHSRVSVAARDGSFTVSAQKNVEHGIIYIGKPSLRKQRFMQFSSLEHEGEYYMTPRDFLFSVMFEQMERKTSVKKLTKKDIEDTLSGIQTAGCGSTFFRDLGDKGLISYTEYLFLLTILTKPHSGFHVAFKMLDTDGNEMIEKREFFKLQKIISKQDDLMTVKTNETGYQEAIVKEPEINTTLQMRFFGKRGQRKLHYKEFRRFMENLQTEIQEMEFLQFSKGLSFMRKEDFAEWLLFFTNTENKDIYWKNVREKLSAGESISLDEFKSFCHFTTHLEDFAIAMQMFSLAHRPVRLAEFKRAVKVATGQELSNNILDTVFKIFDLDGDECLSHEEFLGVLKNRMHRGLWVPQHQSIQEYWKCVKKESIKGVKEVWKQAGKGLF

Read-outs that look alike come from different tables or passages of the source. These are yes or no findings as the source states them, for the method shown. Binding seen in cells or lysates may run through a third protein. These calls come from enrichment with a bait or labelling near it, and not all partners need be listed. For part of these data: Sequences can lack the tags named with a protein. Each block holds one molecule with its values, some of them ahead of it.
